In PubChem BioAssay AID652054 (National Center for Advancing Translational Sciences (NCATS), 2013):
In all, about 360,000 compounds went through this assay and about 9,100 (2.5%) were called active. The inconclusive results got no clear call from the source; some entries with a clear call stand among them for comparison. Rule as the data show it: active = max response below about -50%; inconclusive = no clear call, values can overlap the other calls; inactive = above that.

The chains behind the UniProt entries cited, without tags or fusion partners.
UniProt P35462, whole entry, looked up: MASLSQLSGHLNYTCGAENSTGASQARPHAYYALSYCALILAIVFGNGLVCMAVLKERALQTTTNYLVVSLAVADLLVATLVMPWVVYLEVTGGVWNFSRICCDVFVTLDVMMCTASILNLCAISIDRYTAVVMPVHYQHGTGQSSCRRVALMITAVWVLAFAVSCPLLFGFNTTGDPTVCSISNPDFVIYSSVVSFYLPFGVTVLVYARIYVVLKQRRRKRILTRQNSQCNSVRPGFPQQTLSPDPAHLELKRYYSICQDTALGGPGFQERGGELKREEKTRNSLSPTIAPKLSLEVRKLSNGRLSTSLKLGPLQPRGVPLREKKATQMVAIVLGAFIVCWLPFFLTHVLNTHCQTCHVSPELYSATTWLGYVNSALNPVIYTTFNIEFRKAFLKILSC

molecular target: D(3) dopamine receptor (Homo sapiens) (UniProt P35462); test: qHTS of D3 Dopamine Receptor Antagonist: qHTS; details: D3R cells, DiscoveRx beta-arrestin luminescence, antagonist mode; hits give low values
Method in brief: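 Cells plated overnight at 1500 cells/well, then exposed to library compounds with dopamine controls for 90 minutes at 37 degrees C. DiscoveRx reagent added for 30–60 minutes at room temperature; luminescence read, quantitative HTS format.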
% is scaled to controls: 0 for no effect and ±100 for the full control effect.

With `N/C(=N\OCc1ccc([N+](=O)[O-])cc1)c1ccncc1` as the molecule, how does the max response, negative = inhibition read?
Its max response, negative = inhibition is inactive: -8.28%.

Which max response, negative = inhibition does the source give for `CN(CCO)CC(O)CN(c1ccccc1)c1ccccc1` (stereo unspecified) here?
The max response, negative = inhibition was active: -50.7%.

Which max response, negative = inhibition does the source give for `c1ccc(Nc2nc(N3CCCCC3)nc(N3CCCCC3)n2)cc1` here?
Its max response, negative = inhibition is inactive: 17.4%.

Which max response, negative = inhibition does the source give for `c1ccc(CNC2=NCCC2)nc1` here?
The max response, negative = inhibition was inconclusive: -43.9%.

Which max response, negative = inhibition does the source give for `CCc1nc2c(OCc3cccc(OC)c3)cccn2c1N(C)C(=O)c1ccc(OC)cc1` here?
The max response, negative = inhibition was inconclusive: -37.2%.

`CCOC(=O)C1CCCN(Cc2ccccc2C)C1` (stereo unspecified) was tested. Which max response, negative = inhibition did it give?
Its max response, negative = inhibition is active: -63.6%.

`Oc1ccc(C=NN=C2c3ccccc3-c3ccccc32)c(O)c1` was tested. Which max response, negative = inhibition did it give?
Its max response, negative = inhibition is inconclusive: -46.5%.

With `O=[N+]([O-])c1ccc(CN2CCSCC2)cc1` as the molecule, how does the max response, negative = inhibition read?
Its max response, negative = inhibition is inactive: -15.7%.

`CN1N=C(C(C)(C)C)CC1=O` was tested. Which max response, negative = inhibition did it give?
The max response, negative = inhibition was inconclusive: -46.6%.

For `CC(C)(C)NC(=O)CN(C(=O)C1CSC(=O)C1)c1ccc2c(c1)OCCO2` (stereo unspecified), which max response, negative = inhibition is on record?
Its max response, negative = inhibition is inconclusive: -43.8%.

`COc1cccc(N2CC(C(=O)Oc3ccc4ccccc4c3)CC2=O)c1` (stereo unspecified) was tested. Which max response, negative = inhibition did it give?
The max response, negative = inhibition was inactive: -17.8%.

How did the max response, negative = inhibition turn out when `Cc1cc(C(=O)NC2CCN(Cc3ccccc3)CC2)n[nH]1` was run?
The max response, negative = inhibition was active: -81.2%.

For `CCC(=O)NC(c1ccc([N+](=O)[O-])cc1)c1c(O)ccc2ccccc12` (stereo unspecified), which max response, negative = inhibition is on record?
The max response, negative = inhibition was inactive: -27.7%.

For `COc1ccc(C(c2nnnn2C2CCCC2)N2CCC(C)CC2)c(OC)c1` (stereo unspecified), which max response, negative = inhibition is on record?
Its max response, negative = inhibition is inconclusive: -38.7%.

How did the max response, negative = inhibition turn out when `CC(C)[C@H](NC(=O)c1ccc(Cl)c([N+](=O)[O-])c1)C(=O)NCc1ccc(Cl)cc1Cl` was run?
Its max response, negative = inhibition is inconclusive: -48.3%.

How did the max response, negative = inhibition turn out when `O=C(c1ccc(F)cc1)C1CCN(Cc2cn[nH]c2-c2ccc(F)cc2)CC1` was run?
Its max response, negative = inhibition is inconclusive: -36.1%.

Which max response, negative = inhibition does the source give for `CC(C)OCCc1cccc[n+]1[O-]` here?
Its max response, negative = inhibition is inconclusive: -30.8%.

Which max response, negative = inhibition does the source give for `COc1cc(C(=O)Nc2ccc(-c3nnc(-c4ccco4)o3)cc2)cc(OC)c1OC` here?
The max response, negative = inhibition was inactive: 67.6%.

With `CC1CC(C)CN(C/C=C/c2ccccc2[N+](=O)[O-])C1` (stereo unspecified) as the molecule, how does the max response, negative = inhibition read?
The max response, negative = inhibition was active: -73.4%.

`COc1ccc(/C=C2/SC(=S)N(Cc3ccccc3)C2=O)cc1O` was tested. Which max response, negative = inhibition did it give?
Its max response, negative = inhibition is inconclusive: -30%.

With `CC(C)Cc1ccc(C(C)C(N)=NCCc2ccccc2)cc1` (stereo unspecified) as the molecule, how does the max response, negative = inhibition read?
The max response, negative = inhibition was inconclusive: -34.1%.

`Cc1ccc(SCCNC(=S)Nc2ccc(C)c(C)c2)cc1` was tested. Which max response, negative = inhibition did it give?
Its max response, negative = inhibition is inconclusive: -33%.

Which max response, negative = inhibition does the source give for `CC(=O)N1c2ccccc2N2C(c3c(C)c(C)cc(C)c3C)=NON12` here?
The max response, negative = inhibition was inactive: -1.66%.

`CCCCSc1nc(O)c(C2OC(=O)c3c2ccc(OC)c3OC)c(=O)n1-c1ccccc1` (stereo unspecified) was tested. Which max response, negative = inhibition did it give?
The max response, negative = inhibition was inconclusive: -31.9%.

How did the max response, negative = inhibition turn out when `C[C@H](CO)N1C[C@H](C)[C@@H](CN(C)C(=O)Nc2ccc(C(F)(F)F)cc2)Oc2ccc(NC(=O)CCC(F)(F)F)cc2C1=O` was run?
The max response, negative = inhibition was inactive: -19.7%.
